Experimental findings from PubChem BioAssay (NCATS) are described below.

The structures appear in SMILES notation. The list shows a part of the results. Further columns of the screen follow, without active or inactive calls. Most of these compounds were active or inconclusive in the main read-out, so they are no random draw. Words in brackets tell the shape of the fitted curve; partial curves, single points and poor fits give uncertain potencies.

The nature of assay [1]: qHTS Assay for Inhibitors of PDE-IV (AID 607). To be noted: HEK293 ACTOne CNG channel cells, membrane potential fluorescence; measured here: parental cell counter-screen. In outline: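 Cell-based read-out of cAMP via a modified cyclic nucleotide-gated channel and membrane potential dye (535/590 nm) in HEK293 cells expressing PDE4 endogenously. Compounds tested up to 22.9 uM final; 100 uM RO 20-1724 reference.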

Assay [2] in a line: qHTS Assay for Lipid Storage Modulators (AID 1519). The note with it: Drosophila S3 cells, BODIPY lipid droplet/cell ratio, laser cytometry, cells loaded with oleic acid. In outline:
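Cells seeded at 5,000 per well were treated with compounds over a concentration series and loaded with oleic acid (400 uM, as added). Lipid droplet fluorescence (488 nm excitation, 500-530 nm channel) was read by laser-scanning cytometry and normalized to 20 uM Triacsin C.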
In general terms: Quantitative high-throughput screening tests each substance at several concentrations.

Where [3] appears, read: measured here: cell count channel max response.
[4] abbreviates: measured here: cell number channel AC50.
Where [5] appears, read: measured here: lipid (BODIPY) channel AC50.
Setting [6] is: measured here: lipid channel max response.

As usually defined, the AC50 is the concentration at which the activity in the assay is half-maximal. Turning to `Cc1cccc(CNc2ncncc2-c2ccccc2Cl)c1`, the AC50 was 15.8 µM [rising, single point] in assay [1]; 5.62 µM [rising, full curve, poor fit] in assay [2] (setting [4]); 3.16 µM [rising, full curve, poor fit] in assay [2] (setting [5]). Besides, the max response in assay [2] (setting [3]) worked out at 34.6%; in assay [2] (setting [6]), 38.2%.
As for `CN(Cc1ccco1)c1ncnc2ccc(-c3ccccc3Cl)cc12`, the AC50 was 12.6 µM [rising, partial curve] in assay [1]; 0.891 µM [rising, full curve] in assay [2] (setting [4]); 0.794 µM [rising, full curve] in assay [2] (setting [5]). Besides, the max response was 12.5% in assay [2] (setting [3]) and 9.17% in assay [2] (setting [6]).
For the compound `COc1cccc(-c2ccc3ncnc(Nc4ccccc4)c3c2)c1`, the concentration at half-maximal activity (AC50) is 10 µM [rising, partial curve] in assay [1]; 0.316 µM [rising, full curve] in assay [2] (setting [4]); 0.447 µM [rising, full curve] in assay [2] (setting [5]). In addition, the max response in assay [2] (setting [3]) turned out to be 21%; in assay [2] (setting [6]), 25.9%.
`COc1ccc(CCCO[C@@H](Cn2ccnc2)c2ccc(OC)cc2)cc1`: the AC50 in assay [1] is 15.8 µM [rising, partial curve]; in assay [2] (setting [4]), 0.224 µM [rising, full curve]; in assay [2] (setting [5]), 0.158 µM [rising, full curve]. Also, the max response was 72.5% in assay [2] (setting [3]) and 95.9% in assay [2] (setting [6]).
